Results reported in PubChem BioAssay AID1487 (National Center for Advancing Translational Sciences (NCATS), 2009).
This is one part of the list. The main result of the screen is listed elsewhere. These columns were measured beside it and carry no call. Compounds called inactive in the main read-out are mostly missing here. The note in brackets gives the kind of curve behind each potency; many fits are weak.

Assay: qHTS Assay for Modulators of Lamin A Splicing
Conditions: HeLa LMNA splicing GFP/RFP minigene ratio, 48 h
Summary of the method: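 S3 HeLa cells stably expressing lamin A-EGFP splicing minigene plus DsRed2, 600 cells/well, 48 h compound exposure at 37C. Laser-scanning cytometry; analysed as GFP (500-530 nm)/RFP (575-640 nm) total intensity ratio; 0.5% DMSO vehicle.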

[1] = measured here: GFP splicing reporter channel
[2] = measured here: RFP viability control channel

SMILES	AC50 [1]	AC50 [2]
O=C(NCCc1c[nH]c2ccccc12)C(=O)NCC1OCCCN1S(=O)(=O)c1ccc(F)cc1 (configuration not stated)	0.224 µM [rising, full curve, poor fit]	17.8 µM [rising, partial curve]
S=C(Nc1ccc(Nc2ccccc2)cc1)NC1CCCCCC1		3.55 µM [rising, single point]
CSc1cccc(NC(=O)/C=C/c2ccccc2)c1	0.0316 µM [falling, full curve, poor fit]	
CCOC(=O)c1c(C)[nH]c(C(=O)N/N=C/c2ccc(Br)cc2)c1C		0.158 µM [rising, full curve, poor fit]
Fc1cccc(C[n+]2csc3ccccc32)c1		35.5 µM [falling, single point]
COc1cc(-c2nc(CN3CCCN(C(=O)c4ccco4)CC3)c(C)o2)ccc1F		0.00501 µM [falling, full curve, poor fit]
O=C(c1nn2c(C(F)(F)F)cc(-c3cccs3)nc2c1Br)N1CCCc2ccccc21	1.58 µM [falling, partial curve]	5.62 µM [falling, single point]
COCCN1C(=O)N[C@@H](CCc2ccccc2)C(C(C)=O)=C1C	15.8 µM [rising, single point]	12.6 µM [rising, single point]
O=C1C=C(NCc2ccccc2)c2ccccc2C1=O	10 µM [falling, partial curve, poor fit]	12.6 µM [falling, partial curve]
Cc1ccccc1C(=O)N1CCN(c2ccc(NC(=O)CSc3ccc(Cl)cc3)cc2)CC1	0.2 µM [falling, full curve]	
CC(=O)c1cccc(NC(=O)COC(=O)c2cccs2)c1	89.1 µM [falling, partial curve]	
COC(=O)c1cc2ccsc2n1Cc1ccccc1F		0.00355 µM [falling, full curve, poor fit]
O=C(NC(=S)Nc1ccc(NC(=O)c2cccs2)cc1)c1ccco1		15.8 µM [rising, partial curve, poor fit]
Cc1nn(-c2ccccc2)c(N2CCCC2)c1/C=N/NC(=O)c1cc(-c2ccccc2)nc2ccccc12		10 µM [rising, partial curve, poor fit]
O=S(=O)(NCc1ccc(F)cc1)c1ccc2[nH]c3c(c2c1)CCCC3	22.4 µM [falling, partial curve]	12.6 µM [falling, partial curve]
Cc1cc(/C=C(\C#N)C(N)=O)c(C)n1-c1ccc(N2CCOCC2)c([N+](=O)[O-])c1	12.6 µM [falling, partial curve]	7.94 µM [falling, partial curve]
COc1ccc(NC(=O)C2Cc3ccccc3CN2S(=O)(=O)c2ccccc2)cc1OC (configuration not stated)	25.1 µM [rising, partial curve, poor fit]	35.5 µM [rising, single point]
COc1cc(C(=O)N2CCN(c3cccc(C)c3C)CC2)cc(OC)c1OC		11.2 µM [rising, partial curve]

An excerpt from above in order of length of the SMILES, ascending:
SMILES	AC50 [1]	AC50 [2]
COC(=O)c1cc2ccsc2n1Cc1ccccc1F		0.00355 µM [falling, full curve, poor fit]
O=C(c1nn2c(C(F)(F)F)cc(-c3cccs3)nc2c1Br)N1CCCc2ccccc21	1.58 µM [falling, partial curve]	5.62 µM [falling, single point]
O=C(NCCc1c[nH]c2ccccc12)C(=O)NCC1OCCCN1S(=O)(=O)c1ccc(F)cc1 (configuration not stated)	0.224 µM [rising, full curve, poor fit]	17.8 µM [rising, partial curve]

Next results

SMILES	AC50 [1]	AC50 [2]
C/C(=N/Nc1nc(-c2ccccc2)cc(-c2ccccc2)n1)c1ccc(N)cc1		14.1 µM [rising, single point]
CCc1ccccc1NC(=O)CCCn1c(=O)c2cccn2c2ccccc21	15.8 µM [rising, partial curve, poor fit]	35.5 µM [rising, single point]
CCOC(=O)c1[nH]c2ccc(Br)cc2c1NC(=O)CCN1CCN(C(=O)OCC)CC1	6.31 µM [rising, partial curve, poor fit]	11.2 µM [rising, partial curve]
CCOC(=O)N/N=C/C=C/c1ccccc1		0.0631 µM [rising, full curve, poor fit]
COc1ccc(-c2nn(-c3ccccc3)cc2C(=O)Nc2nccs2)cc1OC		35.5 µM [rising, single point]
CSc1nsc(SC)c1C(=O)Nc1ccc(Cl)cc1		0.00282 µM [falling, full curve, poor fit]
Cc1cc(C(=O)OCC(=O)N2CC(=O)Nc3ccccc32)c(C)n1-c1ccc(F)cc1		12.6 µM [rising, partial curve]
CN(C)c1nc(N)nc(CSc2nnnn2-c2cccc3ccccc23)n1		2.51 µM [rising, full curve]
O=C(CCCn1cnc([N+](=O)[O-])n1)Nc1cccc(Cl)c1Cl		7.08 µM [rising, full curve, poor fit]
COc1c2occc2c(OC)c2c(=O)cc(C)oc12	0.00282 µM [rising, full curve, poor fit]	
CNc1ncnc2ccc(-c3ccccc3OC)cc12	25.1 µM [falling, single point]	25.1 µM [falling, single point]
COc1ccc2[nH]cc(CCNc3ccnc(-c4ccoc4)n3)c2c1	12.6 µM [falling, single point]	
CN(C)c1ccc(P(=O)(CC(=O)N/N=C/c2ccc(C#N)cc2)OCCCl)cc1 (configuration not stated)	0.316 µM [rising, full curve, poor fit]	
CCCCOC(=O)Cn1c(=O)c2c(nc3n2CCCCN3c2ccc(C)cc2)n(C)c1=O		14.1 µM [rising, partial curve]
Brc1ccc(OCCOc2cccc3cccnc23)cc1		0.00447 µM [rising, full curve, poor fit]
Cc1ccc(Cl)cc1NC(=O)Cn1c(SCC(=O)NCc2ccccc2)nc2ccccc21		35.5 µM [falling, single point]
O=C(CN(Cc1ccco1)C(=O)Cn1nnc(-c2ccc(F)cc2)n1)NC1CCCC1	0.316 µM [rising, partial curve]	28.2 µM [rising, single point]
CC1(C)CC(=O)c2sc(NC(=O)CCS(=O)(=O)c3ccccc3)nc2C1	17.8 µM [falling, partial curve]	
